The values below are quoted from earlier work in publication PMC7395068, “The evolution of strategies to minimise the risk of human drug-induced liver injury (DILI) in drug discovery and development” (Archives of Toxicology, 2020).

Data set [1] concerns THLE-Null and THLE-3A4 cells. The following applies: In vitro Assay; ref Gustafsson 2014; cited from earlier work.
Data set [2] concerns rBsep. The following applies: In vitro Assay; ref Dawson 2012; cited from earlier work.

Consider `CN1Cc2c(N)cccc2C(c2ccccc2)C1` (centres unmarked) [nomifensine], for which the THLE-Null/3A4 entry in data set [1] is “-VE”. For the same compound, the “Inhibition of rBsep cutoff<3” value in data set [2] is “-VE”.
